# PubChem BioAssay AID1439 (NMMLSC, 2008)
# Amino acid sequences for entries named in this document (tags omitted).
# UniProt P09471, whole entry, looked up: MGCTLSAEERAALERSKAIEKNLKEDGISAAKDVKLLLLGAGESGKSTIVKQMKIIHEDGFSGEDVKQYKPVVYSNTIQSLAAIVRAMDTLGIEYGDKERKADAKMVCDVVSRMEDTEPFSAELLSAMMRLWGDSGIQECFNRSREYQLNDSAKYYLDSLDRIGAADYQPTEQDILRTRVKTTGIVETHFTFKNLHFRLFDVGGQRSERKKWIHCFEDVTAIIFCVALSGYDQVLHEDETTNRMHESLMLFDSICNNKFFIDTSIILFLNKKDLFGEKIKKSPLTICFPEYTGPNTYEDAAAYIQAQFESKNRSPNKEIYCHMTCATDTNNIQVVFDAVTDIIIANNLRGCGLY
# The campaign covered roughly 220,000 compounds. About 770 (0.35%) were called active. Inconclusive results, whose numbers are uncertain, are shown with a selection of clear calls. No stated cut-off is given here; in the data, active means binding response below about 49% or above about 150%; inconclusive means no clear call, values can overlap the other calls; inactive means in between.
# Target: Guanine nucleotide-binding protein G(o) subunit alpha (Homo sapiens) (UniProt P09471)
# Assay: RGS7-Galphao binding modulators, primary screen, biochemical, multiplexed bead flow cytometry (AID 1439);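 further: fluorescent Galphao held in activated GDP-AlF4 state binding bead-coupled RGS7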
# Details: at 10 µM, actives lie on both sides
row,SMILES,binding response (% of control)
1,O=[N+]([O-])c1ccc(Cl)c(S(=O)(=O)n2ccnc2)c1,inconclusive: 116%
2,CC1SCC(NC(=O)c2cccc(Cl)c2)CS1 (stereo unspecified),inconclusive: 96.5%
3,COc1ccc(C2=NN(c3nc(C(=O)O)cs3)C(O)(C(F)(F)F)C2)c(OC)c1 (stereo unspecified),inconclusive: 107%
4,O=C(O)/C=C/C(=O)Nc1ccc(Cl)cc1C(=O)c1ccccc1,inconclusive: 112%
5,Nc1c(S(=O)(=O)c2cccs2)c2nc3ccccc3nc2n1/N=C/c1cccc(O)c1,inactive: 111%
6,c1ccc(Cn2c(-c3ccccc3)c[n+]3c2SCCC3)cc1,inconclusive: 78.7%
7,CC1(C)CC(=O)C(N=Nc2cccc([N+](=O)[O-])c2)=C(O)C1,inconclusive: 107%
8,C/C(=C\c1ccccc1)C(=O)NCCCn1ccnc1,inconclusive: 112%
9,COc1ccccc1NS(=O)(=O)c1ccc(/C=C/C(=O)O)cc1,inconclusive: 106%
10,Cc1nc(N2CCC(C)CC2)c2nnn(Cc3ccccc3)c2n1,inactive: 83.8%
11,Cc1ccc(NC(=S)N2CCC(N(C)CC3CCCO3)CC2)cc1 (stereo unspecified),inactive: 99.9%
12,Cc1ccc(C(=O)O)cc1NC(=O)CSc1ncnc2sc3c(c12)CCC3,inconclusive: 151%
13,CN(C)c1ccc(/C=N/NC(=O)CCCCCNC(=O)c2ccccc2)cc1,inconclusive: 330%
14,Cc1cccc(CSCc2ccc(C(=O)NCC3CCCO3)o2)c1 (stereo unspecified),inactive: 99.3%
15,Cc1cccc(NC(=S)N(CCCN2CCOCC2)C(C)c2cc3ccccc3o2)c1C (stereo unspecified),inactive: 98.8%
16,CC(=O)C1=C(C)NC(=O)NC1/C=C/c1ccccc1 (stereo unspecified),inconclusive: 93.6%
17,COc1cc(C(=O)NC(=S)Nc2csc(-c3ccc(F)cc3)n2)cc(OC)c1OC,inconclusive: 110%
18,CCCCCOCC1CC(C/C(C)=N/NC(N)=O)(C(=O)OCC)C(=O)O1 (stereo unspecified),inconclusive: 110%
19,CC(C)=CCN1CCN(Cc2cc(CC(C)C)n[nH]2)CC1CCO (stereo unspecified),inconclusive: 114%
20,CCn1c(Sc2ccc([N+](=O)[O-])cn2)nnc1-c1ccco1,inactive: 90.8%
21,C/C(Cc1ccccc1)=N\NC(=O)CNC(=O)c1ccccc1Br,inactive: 86.1%
22,O=C(CN1C(=O)CSc2ccc(C(F)(F)F)cc21)Nc1ccccc1,inconclusive: 126%
23,Cc1c(NC(=O)c2cccs2)cccc1C(=O)O,inactive: 89.9%

row,SMILES,binding response (% of control)
1,O=[N+]([O-])c1cc(S(=O)(=O)N2CCCCC2)ccc1NCCCN1CCOCC1,inactive: 98.3%
2,CNC(=S)N/N=C/c1ccc(-c2ccc(C(=O)O)cc2)o1,inconclusive: 85.5%
3,CC(=O)c1c(C(C)=O)c(C)n(C(c2ccccc2)c2ccccc2)c1C,inactive: 98.4%
4,COc1cc(/C=C2/S/C(=N/S(=O)(=O)Cc3ccccc3)NC2=O)c([N+](=O)[O-])cc1OC,inconclusive: 122%
5,CC1(C)CC(=O)c2cnc(N3CCc4ccccc43)nc2C1,inconclusive: 74.9%
6,O=C(/C=C\c1ccccc1OC(=O)c1ccccc1F)c1cc2ccccc2o1,inactive: 101%
7,CC(OC(=O)CC(NC(=O)c1ccccc1Cl)c1ccccc1)C(=O)Nc1cccc(Cl)c1Cl (stereo unspecified),inactive: 98.3%
8,NNC(=S)Nc1ccc(C(F)(F)F)cc1Cl,inconclusive: 38.5%
9,Cc1nc(-c2nnc(SCC(=O)Nc3cc(C(F)(F)F)cc(C(F)(F)F)c3)n2C)cs1,inconclusive: 90.2%
10,COc1cccc(-c2noc(CCCC(=O)Nc3ccc(C(N)=O)cc3)n2)c1,inactive: 99.1%
11,CCN(CC)S(=O)(=O)c1cccc(C(=O)Oc2cccc(NC(=O)c3cccs3)c2)c1,inactive: 102%
12,CCc1cc2c(=O)c(-c3nc4ccccc4n3C)c(C)oc2c(CN2CCCCC2)c1O,inconclusive: 95.6%
13,CCCCn1c(=O)[nH]c2nc3cc(NC(C)=O)ccc3nc2c1=O,inconclusive: 114%
14,CC(=O)c1ccc(NC(=O)CSC(=S)N2CCCC2)cc1,inactive: 102%
15,COc1ccc(CCN(C)Cc2ccc(OC)c(OCc3ccccc3)c2)cc1OC,inactive: 127%
16,COc1ccc(NC(=O)Oc2cc(C)ccc2C(C)C)cc1,inconclusive: 151%
17,O=C(NNC(=O)C1[C@H]2CCCC[C@@H]12)Nc1cccc2ccccc12 (stereo partly specified),inconclusive: 96.3%
18,CCc1ccc(NC(=O)CC2C(=O)N(c3ccc(C)cc3)C(=O)N2CCc2ccncc2)cc1 (stereo unspecified),inactive: 105%
19,Cc1cccc2c1N(CCOc1ccccc1)C(=O)C2=O,inactive: 86.4%
20,COc1cc(C(=O)NCC(=O)N/N=C/c2ccc(OC(=O)c3ccco3)cc2)cc(OC)c1OC,inactive: 100%
21,O=C(NCc1cccnc1)C(=O)C1C(=O)Nc2ccccc21 (stereo unspecified),inconclusive: 90.3%
22,COC(=O)[C@@H]1C[C@H]2CC[C@H](O)C[C@H]2N1Cc1ccccc1OC(=O)c1cccs1,inconclusive: 122%
23,COc1cc(CNCCc2ccccc2)cc(Br)c1OCC(=O)Nc1ccccc1C,inconclusive: 101%

# Reformatted: entries from further up.
row	SMILES	binding response (% of control)
5	CC1(C)CC(=O)c2cnc(N3CCc4ccccc43)nc2C1	inconclusive: 74.9%
6	O=C(/C=C\c1ccccc1OC(=O)c1ccccc1F)c1cc2ccccc2o1	inactive: 101%
7	CC(OC(=O)CC(NC(=O)c1ccccc1Cl)c1ccccc1)C(=O)Nc1cccc(Cl)c1Cl (stereo unspecified)	inactive: 98.3%
8	NNC(=S)Nc1ccc(C(F)(F)F)cc1Cl	inconclusive: 38.5%
9	Cc1nc(-c2nnc(SCC(=O)Nc3cc(C(F)(F)F)cc(C(F)(F)F)c3)n2C)cs1	inconclusive: 90.2%

# Next part

row,SMILES,binding response (% of control)
1,Cc1ccc2c(c1)NC(=O)C(CC(=O)NCc1cccnc1)O2 (stereo unspecified),inactive: 145%
2,O=c1c2ccccc2nc2n1C(CBr)CS2 (stereo unspecified),inconclusive: 100%
3,CCSC1=C(C#N)C(CC(C)C)C2=C(CCCC2=O)N1 (stereo unspecified),inconclusive: 79.5%
4,O=C(CN1C(=O)C(c2ccc(F)cc2)=NC12CCCC2)Nc1ccc(F)cc1,inconclusive: 87.6%
5,COc1ccc(N=C2SCC(c3ccc(C)cc3)=NN2CCO)cc1,inconclusive: 119%
6,Cn1c(=O)n(CCOc2ccc([N+](=O)[O-])cc2)c2ccccc21,inconclusive: 19.1%
7,Cc1ccc(S(=O)(=O)Oc2ccc(/C=C(/NC(=O)c3ccccc3)C(=O)NC(C)C(=O)O)cc2)cc1 (stereo unspecified),inactive: 105%
8,Cc1ccc(-n2c(-c3ccc(Cl)cc3)c[n+]3c2CCC3)cc1,inconclusive: 190%
9,Cc1nc2c(ncn2-c2ccccc2)c(=O)n1NC(=O)CN1CCN(C)CC1,inconclusive: 113%
10,O=C(N=Nc1c(O)[nH]c2ccc([N+](=O)[O-])cc12)c1ccccc1Cl,inconclusive: 159%
11,CCCNC(=O)/C=C/C(=O)O,inactive: 99.2%
12,CCCC[C@@H]1CNC(=O)C(=O)N1CCc1cc(C(F)(F)F)cc(C(F)(F)F)c1,inconclusive: 98.8%
13,COc1cc(C2NC(=O)NC(C)=C2C(C)=O)ccc1O (stereo unspecified),inconclusive: 125%
14,O=C(O)c1ccc(/C=N/NC(=O)c2ccc(F)cc2)cc1,inconclusive: 113%
15,CCOc1ccc(N2CC(C(=O)NCCN3C(=O)S/C(=C\c4cccnc4)C3=O)CC2=O)cc1 (stereo unspecified),inconclusive: 69.5%
16,Cc1ccc(-c2ccc(C(=O)O)o2)cc1Cl,inconclusive: -75.2%
17,Cc1nccn1CC(=O)N/N=C/c1cc(Br)cs1,inconclusive: 33.7%
18,CCCCn1c2ccccc2c2cc(CC(N)=O)ccc21,inconclusive: 196%
19,N#C/C(=C\C=C\c1ccccc1[N+](=O)[O-])C(=O)NC1CCCCC1,inconclusive: 98.1%
20,O=C(c1cccs1)N1CCN(c2ccccc2)CC1,inconclusive: 104%
21,C/C(=N/NC(=O)c1cc(-c2ccc(Cl)s2)[nH]n1)c1ccco1,inconclusive: 56.4%
22,Nc1ccc(-c2cnc[nH]2)cc1[N+](=O)[O-],inconclusive: 114%
23,C/C(=N\N1CCN(C)CC1)c1ccc(Cl)c(Cl)c1,inactive: 100%

row,SMILES,binding response (% of control)
1,Cc1oc(C)c(S(=O)(=O)NCc2cccs2)c1C(=O)O,inconclusive: 94.8%
2,O=C(CNC(=O)c1ccncc1)N/N=C/c1ccc(Br)cc1,inconclusive: 85.1%
3,O=C(NCC1CC1)c1onc(CSc2ccncc2)c1C(=O)NCC1CC1,inconclusive: 113%
4,O=S(=O)(Nc1nc2ccccc2nc1NCc1ccco1)c1ccc(F)cc1,inconclusive: 418%
5,COc1cc2ncnc(NCCCN3CCOCC3)c2cc1OC,inconclusive: 104%
6,Cc1ccc(NC(=O)Nc2ncnc3nc[nH]c23)cc1,inconclusive: 485%
7,CCOC(=O)c1cc(-c2cccc([N+](=O)[O-])c2)n[nH]1,inconclusive: 107%
8,O=C(CSc1nnc(-c2cc(-c3cccs3)nc3ccccc23)o1)NC1CCCCC1,inactive: 111%
9,CCC1(c2ccccc2)NC(=S)N(c2ccc(C)c(C)c2)N1 (stereo unspecified),inconclusive: 110%
10,CCn1c(=O)ccc2cc([N+](=O)[O-])ccc21,inactive: 96.1%
11,O=C(CN1C(=O)COc2ccc(S(=O)(=O)N3CCCC3)cc21)NC1CC1,inconclusive: 130%
12,COc1ccc(OCC(=O)O/N=C(\N)c2ccc(OC)cc2)cc1,inconclusive: 74.4%
13,O=C(Nc1cccn(Cc2c(Cl)cccc2Cl)c1=O)C1CC1,inconclusive: 87.7%
14,CNNC(=S)NCCC1=CCCCC1,inconclusive: 438%
15,COc1cc(OC)cc(C(=O)N[C@H](C(=O)OCn2nnc3ccccc3c2=O)C(C)C)c1,inconclusive: 120%
16,Cc1c(O)ccc(-c2n[nH]c(C(=O)O)c2-c2nc3ccccc3s2)c1O,inconclusive: 93.2%
17,CCn1c(O)c(N=NC(=O)C(O)c2ccccc2)c2ccccc21 (stereo unspecified),inconclusive: 71.7%
18,CCCNC(=O)Nc1cccc(C(=O)OC)c1,inconclusive: 132%
19,Cc1ccc(SCc2noc(-c3c(C)noc3C)n2)cc1,inconclusive: 91.6%
20,Cc1cc(=O)[nH]c(SCC(=O)NC2CCCc3ccccc32)n1 (stereo unspecified),inconclusive: 64.5%
21,CCC(=O)Nc1ccc(C(=O)N/N=C/c2cc(Br)c(OC)cc2OC)cc1,inactive: 103%
22,CCOc1ccc(N(CC(=O)Nc2nccs2)S(=O)(=O)c2c(C)[nH]c(=O)[nH]c2=O)cc1,inconclusive: 85.2%
